# From PubChem BioAssay AID504444 (National Center for Advancing Translational Sciences (NCATS), 2011)
# Screen size: about 360,000 compounds; about 7,500 (2.1%) were called active. The inconclusive results got no clear call from the source; some entries with a clear call stand among them for comparison. Calls follow the shape of the dose curve; as a rule, active = well fitted inhibition curve with a large enough effect; inconclusive = small, poorly fitted or top-dose-only effect, or effect the other way; inactive = flat fitted curve, though single readings scatter. Where the call is inconclusive, the potency comes from a doubtful curve fit.
# Experiment: Nrf2 qHTS screen for inhibitors; also: nearly all actives have a fitted effect of over 60% in size
# Conditions: A549 ARE-Fluc reporter, luciferase luminescence, 18-24 h; activity change, negative = inhibition: at 46 µM (top of the series)
# Method in brief: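 Two sequential reads on A549 ARE_Fluc cells exposed to compound for 18-24 h: a CellTiter-Fluor fluorescence read for viability, then a luciferase luminescence read for Nrf2/ARE activity.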
# % is scaled to controls: 0 for no effect and ±100 for the full control effect; potency is read from the fitted curve at half-maximal effect.
Structure (SMILES),"activity change, negative = inhibition",Potency
COc1ccccc1NC(=O)CN(c1ccccc1)S(=O)(=O)c1ccccc1,inactive: -5.49%,
CC(C)c1ccc(C(=O)NNC(=O)C2CC=CCC2C(=O)O)cc1 (stereo not drawn),,"inconclusive: 23.1 µM [activator, single point]"
COc1ccc(C(=O)c2c(C)c(CCC#N)n3ccccc23)c(OC)c1,,"inconclusive: 13 µM [falling, partial curve]"
COc1ccccc1/C=C/C=N/Nc1cccc(C(=O)O)c1,,"inconclusive: 2.91 µM [activator, partial curve]"
CCn1ncc(-c2csc(N)n2)c1C,,"inconclusive: 8.2 µM [activator, partial curve, poor fit]"
COc1ccccc1C(=O)NCC(=O)N1CCN(S(=O)(=O)c2ccccc2C(F)(F)F)CC1,,"inconclusive: 29.1 µM [falling, single point]"
Cc1cc(C)c(S(=O)(=O)N2CCC3(CC2)OCCN3S(=O)(=O)c2cccs2)c(C)c1,,"inconclusive: 23.1 µM [falling, single point]"
COc1ccc(/C=N/NC(=O)c2cc(-c3cccc(C)c3)nc3ccccc23)cc1O,,"inconclusive: 0.231 µM [activator, full curve, poor fit]"
C/C(=N\NC(=O)c1csc(C)c1C)c1ccc(Cl)s1,,"inconclusive: 16.4 µM [activator, partial curve, poor fit]"
O=C(COc1ccccc1)N1CCN(c2ccc([N+](=O)[O-])c(N3CCCCC3)c2)CC1,,"inconclusive: 29.1 µM [falling, partial curve, poor fit]"
Cc1cccc(NS(=O)(=O)c2ccc(C(=O)NCCCN3CCCC3=O)cc2)c1C,,"inconclusive: 29.1 µM [falling, single point]"
Cc1ccc2c(c1)C(=O)N1[C@H]3c4cc(Br)ccc4OC[C@@H]3[C@H](c3ccccc3)[C@]1(C)C(=O)N2,,"inconclusive: 2.31 µM [activator, full curve]"
CCOC(=O)N1CCC(NC(=O)c2cc(S(=O)(=O)N3CCC4(CC3)OCCO4)ccc2F)CC1,inactive: -23.8%,
CN(Cc1cc(-c2ccccc2)on1)C(=O)c1cc(COc2c(F)cccc2F)on1,,"inconclusive: 25.9 µM [activator, single point]"
O=C(Nn1c(-c2ccc(F)cc2)nc2ccccc2c1=O)C1CCCCC1,inactive: 4.91%,
COc1ccc(C)cc1NC(=O)CC1NCCNC1=O (stereo not drawn),inactive: -18.2%,
O=C(CN1CCc2ccccc2C1)Nc1ccccc1N1CCCCCC1,,"inconclusive: 29.1 µM [falling, single point]"
CCCCOc1ccc(OCCNC(=O)c2ccco2)cc1,,"inconclusive: 29.1 µM [activator, single point]"
CCOC(=O)/C=C(\C)Sc1cc(O)c2ccccc2c1O,,"inconclusive: 20.6 µM [falling, partial curve, poor fit]"
Clc1ccc(-c2nnc3sc(Cc4cccs4)nn23)cc1,,"inconclusive: 8.2 µM [activator, partial curve]"
CC1(C)Cc2c(c(-c3ccco3)nc3n[nH]c(N)c23)CO1,,"inconclusive: 0.058 µM [falling, full curve, poor fit]"

Structure (SMILES),"activity change, negative = inhibition",Potency
Cc1cc(=O)n(Cc2ccccc2)c2c1c(C)nn2C,,"inconclusive: 29.1 µM [falling, partial curve, poor fit]"
COc1ccc(CNC(=O)C[C@H]2C[C@H](C(=O)N3CCCCC3)[C@@]3(CCc4ccccc4)c4[nH]c5ccc(Cl)cc5c4CCN3C2=O)cc1OC,,"inconclusive: 20.6 µM [falling, single point]"
O=C(Cc1ccccc1Cl)Nc1ccc(S(=O)(=O)Nc2nccs2)cc1,,"inconclusive: 5.8 µM [falling, partial curve, poor fit]"
O=C(CN1CCCC1)Nc1ccc(NC(=O)Nc2ccccc2Cl)cc1,,"inconclusive: 2.91 µM [activator, partial curve]"
COc1cccc2c1C(=O)c1c(O)c3c(c(O)c1C2=O)CC(O)(C(C)=NNC(=O)c1ccc(Cl)c(Cl)c1)CC3OC1CC(N)C(O)C(C)O1 (stereo not drawn),,"inconclusive: 0.116 µM [falling, full curve, poor fit]"
CC(C)(C)c1ccc(C(=O)NC2CCS(=O)(=O)C2)cc1 (stereo not drawn),,"inconclusive: 9.2 µM [activator, partial curve, poor fit]"
CC(C)N(CCCNC(=O)Cn1ncc2c([nH]c3ccccc32)c1=O)Cc1ccccc1,,"inconclusive: 8.2 µM [activator, partial curve, poor fit]"
COc1ccc(NS(=O)(=O)c2ccc(N3CCCC3=O)cc2)cn1,,"inconclusive: 23.1 µM [falling, partial curve, poor fit]"
COc1ccccc1/C=C(\NC(=O)c1cccc(C)c1)C(=O)Nc1ccccn1,inactive: 13.2%,
O=C(/C=C/c1c[nH]c2ccccc12)c1ccccc1,,"inconclusive: 16.4 µM [activator, partial curve]"
COc1cc2ccccc2cc1C(=O)Nc1nccs1,,"inconclusive: 1.84 µM [activator, full curve]"
CCN(Cc1cc2cc(OC)ccc2[nH]c1=O)C(=O)c1ccncc1,inactive: -25.4%,
O=C1NC(c2ccc(Br)cc2)Nc2sc3c(c21)CCC3 (stereo not drawn),inactive: 18.7%,
O=C(Nc1cccc(S(=O)(=O)N2CCCCCC2)c1)c1cncc(Br)c1,,"inconclusive: 18.4 µM [falling, single point]"
Cc1cc2nc(-c3ccc(NC(=O)c4ccccc4F)cc3)oc2cc1C,,"inconclusive: 2.31 µM [activator, partial curve]"
COc1cccc(-n2cnc3cccc(N)c32)c1,,"inconclusive: 0.0065 µM [falling, full curve, poor fit]"
CCOC(=O)C1=C(C)NC(=O)NC1c1ccc(OCC(N)=O)cc1 (stereo not drawn),,"inconclusive: 32.6 µM [activator, partial curve, poor fit]"
COc1cccc(-c2csc(/C(C#N)=C/Nc3cc4oc5ccccc5c4cc3OC)n2)c1,,"inconclusive: 29.1 µM [activator, single point]"
CC(=O)Nc1ccc(S(=O)(=O)Nc2nccc(/C=C/c3ccccc3F)n2)cc1,,"inconclusive: 14.6 µM [falling, partial curve]"
Cc1ccc(N2C(=O)C3ON(c4ccccc4)C(CC(C)C)C3C2=O)cc1 (stereo not drawn),,"inconclusive: 29.1 µM [activator, single point]"
O=C(COc1ccccc1Cl)Nc1ccc(S(=O)(=O)Nc2ccccn2)cc1,,"inconclusive: 6.51 µM [falling, partial curve, poor fit]"

Structure (SMILES),"activity change, negative = inhibition",Potency
CCS(=O)(=O)Nc1cccc(-c2nc3cccnc3s2)c1,,"inconclusive: 16.4 µM [activator, single point]"
CCOc1c2ccc(C(=O)NCc3ccco3)cc2nn1CC,,"inconclusive: 25.9 µM [activator, single point]"
COc1cc2nc(CN3CCN(S(=O)(=O)c4ccc(Cl)cc4)CC3)[nH]c(=O)c2cc1OC,,active: 23.1 µM
Cc1nn(-c2ccccc2)c(Cl)c1/C=N/Nc1ccc(Cl)c(C(=O)O)c1,,"inconclusive: 11.6 µM [activator, partial curve]"
O=C(C(=O)N1CC=C(c2ccccc2)CC1)c1c[nH]c2ccccc12,inactive: 11.1%,
CSc1cccc(NC(=S)N2CCC(c3ccccc3)C2)c1 (stereo not drawn),,"inconclusive: 3.26 µM [activator, full curve, poor fit]"
CCCCn1cnc2c(=O)[nH]c(N)nc21,inactive: -10.8%,
COc1ccc(Cl)cc1NC(=O)Cn1c(=O)c(-c2ccccc2NC(C)=O)nc2ccccc21,,"inconclusive: 29.1 µM [activator, single point]"
COc1ccc(C2=NS(=O)(=O)N(C)C(C(=O)Nc3ccc(C)cc3)=C2)cc1,,"inconclusive: 29.1 µM [falling, single point]"
CCCn1c(=O)c(C(=O)NNS(=O)(=O)c2ccc(Cl)cc2)c(O)c2ccccc21,,"inconclusive: 23.1 µM [falling, single point]"
Cc1cccc(NC(=O)CSc2nnc(-c3ccco3)c(-c3ccco3)n2)c1C,,"inconclusive: 16.4 µM [falling, single point]"
Cc1ccc(C(C(=O)NC2CCCCC2)N(Cc2ccco2)C(=O)C2COc3ccccc3O2)o1 (stereo not drawn),,"inconclusive: 32.6 µM [falling, single point]"
O=C(Nc1nc2ccccc2s1)c1c(F)cccc1Cl,,"inconclusive: 11.6 µM [activator, partial curve]"
COC(=O)c1ccccc1NC(=O)Cn1c(=O)cc(C)c2c(C)nn(C)c21,inactive: 8.54%,
CN(C)S(=O)(=O)c1ccc(C(=O)NCCOc2ccc(F)cc2)cc1,,"inconclusive: 7.31 µM [activator, partial curve]"
CN1/C(=C\C(=S)NC(=O)c2ccc([N+](=O)[O-])cc2)C(C)(C)c2ccccc21,,"inconclusive: 18.4 µM [falling, partial curve, poor fit]"
COc1ccc(-c2n[nH]c(C)c2-c2cscn2)c(O)c1,inactive: -10.1%,
CC1CCN(S(=O)(=O)c2ccc(NC(=O)CN3CCN(C)CC3)cc2)CC1,inactive: 12.1%,
Cc1cc(C)c(OCC(=O)Nc2ccc(S(=O)(=O)N3CCCC3)cc2)c(C)c1,,"inconclusive: 25.9 µM [falling, single point]"
COc1ccc(-c2nc(SC(CC(=O)NCCN3CCOCC3)c3cccs3)n[nH]2)cc1 (stereo not drawn),inactive: 2.33%,
Cc1ccc(Cn2nnc3c(=O)[nH]c(C4CCN(S(=O)(=O)c5ccc(C)cc5)CC4)nc32)cc1,,"inconclusive: 29.1 µM [falling, single point]"

# Whole records, quoted from the list:
# COc1ccc(C2=NS(=O)(=O)N(C)C(C(=O)Nc3ccc(C)cc3)=C2)cc1 as listed: Potency: inconclusive: 29.1 µM [falling, single point]
# CCOc1c2ccc(C(=O)NCc3ccco3)cc2nn1CC as listed: Potency: inconclusive: 25.9 µM [activator, single point]
# Cc1ccc(Cn2nnc3c(=O)[nH]c(C4CCN(S(=O)(=O)c5ccc(C)cc5)CC4)nc32)cc1 as listed: Potency: inconclusive: 29.1 µM [falling, single point]
# Cc1cc(C)c(OCC(=O)Nc2ccc(S(=O)(=O)N3CCCC3)cc2)c(C)c1 as listed: Potency: inconclusive: 25.9 µM [falling, single point]
